PubChem BioAssay AID1053209 – Peter MacCallum Cancer Centre | 2014
This is an unselected part of about 1,580 deposited reagents. 207 of all reagents (13%) count as active. 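Rows are single siRNAs; four siRNAs per gene were tested, a gene counting as confirmed only when at least two agree.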 Reagents against one gene are numbered here.

Purpose: 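Gene losses that combine with doxorubicin to kill mouse bone cancer cells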 (follow-up of hits)
System: mouse primary osteosarcoma cells
Reagents: single siRNA against mouse genes, 25 nM (text also states 40 nM)
Duration: about 120 h (48 h before drug, then 72 h with drug)
Conditions: doxorubicin 100 nM (about IC30-40), added 48 h after transfection, for 72 h
Measurement: 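Viability measured by ATP luminescence with and without doxorubicin, each replicate scaled to non-targeting siRNA NT1, averaged over two replicates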
Reading the numbers: viability with doxorubicin, vs NT1: higher = more viable cells under doxorubicin; viability ratio, doxorubicin over no drug: higher = less sensitisation to doxorubicin; viability without drug, vs NT1: higher = more viable cells without drug
Hit rule: 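Counted as active (class LC dox) if viability falls to 0.7 of NT1 or below under doxorubicin but stays within 0.7 to 1.1 without drug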

gene	reagent no.	combined effect class	viability with doxorubicin, vs NT1	viability ratio, doxorubicin over no drug	viability without drug, vs NT1	call
Snrk (SNF related kinase)	1	normal viability with and without drug	0.99	0.99	1	inactive
Snrk (SNF related kinase)	2	normal viability with and without drug	0.95	1.01	0.94	inactive
Snrk (SNF related kinase)	3	high viability only without drug	1.06	0.91	1.17	inactive
Snrk (SNF related kinase)	4	normal viability with and without drug	1.06	1.05	1.01	inactive
Or9s13 (olfactory receptor family 9 subfamily S member 13)	1	normal viability with and without drug	0.86	0.98	0.88	inactive
Or9s13 (olfactory receptor family 9 subfamily S member 13)	2	normal viability with and without drug	0.82	0.85	0.96	inactive
Or9s13 (olfactory receptor family 9 subfamily S member 13)	3	normal viability with and without drug	0.95	1.02	0.93	inactive
Or9s13 (olfactory receptor family 9 subfamily S member 13)	4	normal viability with and without drug	1.04	1.03	1.01	inactive
Adarb2 (adenosine deaminase, RNA-specific, B2)	1	high viability only with doxorubicin	1.14	1.16	0.98	inactive
Adarb2 (adenosine deaminase, RNA-specific, B2)	2	normal viability with and without drug	1.04	1.03	1.01	inactive
Adarb2 (adenosine deaminase, RNA-specific, B2)	3	normal viability with and without drug	1.06	1.08	0.98	inactive
Adarb2 (adenosine deaminase, RNA-specific, B2)	4	normal viability with and without drug	1.04	1.02	1.02	inactive
Mettl1 (methyltransferase 1, tRNA methylguanosine)	1	normal viability with and without drug	1.02	1	1.02	inactive
Mettl1 (methyltransferase 1, tRNA methylguanosine)	2	normal viability with and without drug	0.92	0.94	0.98	inactive
Mettl1 (methyltransferase 1, tRNA methylguanosine)	3	high viability only with doxorubicin	1.1	1.13	0.97	inactive
Mettl1 (methyltransferase 1, tRNA methylguanosine)	4	low viability only with doxorubicin; normal without drug	0.43	0.57	0.75	active
Usp39 (ubiquitin specific peptidase 39)	1	normal viability with and without drug	0.89	0.95	0.94	inactive
Usp39 (ubiquitin specific peptidase 39)	2	normal viability with and without drug	0.9	0.94	0.96	inactive
Usp39 (ubiquitin specific peptidase 39)	3	normal viability with and without drug	0.8	1.03	0.78	inactive
Usp39 (ubiquitin specific peptidase 39)	4	normal viability with and without drug	0.92	1.14	0.81	inactive
Aqr (aquarius)	1	low viability with and without drug	0.22	0.58	0.38	inactive
Aqr (aquarius)	2	low viability with and without drug	0.18	0.39	0.46	inactive
Aqr (aquarius)	3	low viability with and without drug	0.18	0.43	0.42	inactive
Aqr (aquarius)	4	low viability with and without drug	0.21	0.49	0.43	inactive
Or6c69b (olfactory receptor family 6 subfamily C member 69B)	1	normal viability with and without drug	1.04	0.99	1.05	inactive
Or6c69b (olfactory receptor family 6 subfamily C member 69B)	2	normal viability with and without drug	1.02	1.02	1	inactive
Or6c69b (olfactory receptor family 6 subfamily C member 69B)	3	normal viability with and without drug	1.01	0.99	1.02	inactive
Or6c69b (olfactory receptor family 6 subfamily C member 69B)	4	normal viability with and without drug	0.82	0.95	0.86	inactive
Rab4a (RAB4A, member RAS oncogene family)	1	normal viability with and without drug	0.94	1	0.94	inactive
Rab4a (RAB4A, member RAS oncogene family)	2	high viability only with doxorubicin	1.12	1.1	1.02	inactive
Rab4a (RAB4A, member RAS oncogene family)	3	normal viability with and without drug	0.95	1.01	0.94	inactive
Rab4a (RAB4A, member RAS oncogene family)	4	normal viability with and without drug	0.79	0.84	0.94	inactive
Eif3f (eukaryotic translation initiation factor 3, subunit F)	1	low viability only with doxorubicin; normal without drug	0.39	0.48	0.82	active
Eif3f (eukaryotic translation initiation factor 3, subunit F)	2	low viability with and without drug	0.57	0.85	0.67	inactive
Eif3f (eukaryotic translation initiation factor 3, subunit F)	3	low viability with and without drug	0.57	1.06	0.54	inactive
Eif3f (eukaryotic translation initiation factor 3, subunit F)	4	low viability only with doxorubicin; normal without drug	0.39	0.51	0.76	active

No new results follow: 6 of the entries above.
gene	reagent no.	combined effect class	viability with doxorubicin, vs NT1	viability ratio, doxorubicin over no drug	viability without drug, vs NT1	call
Aqr (aquarius)	1	low viability with and without drug	0.22	0.58	0.38	inactive
Aqr (aquarius)	2	low viability with and without drug	0.18	0.39	0.46	inactive
Aqr (aquarius)	3	low viability with and without drug	0.18	0.43	0.42	inactive
Aqr (aquarius)	4	low viability with and without drug	0.21	0.49	0.43	inactive
Or6c69b (olfactory receptor family 6 subfamily C member 69B)	1	normal viability with and without drug	1.04	0.99	1.05	inactive
Or6c69b (olfactory receptor family 6 subfamily C member 69B)	2	normal viability with and without drug	1.02	1.02	1	inactive

Additional results follow:
gene	reagent no.	combined effect class	viability with doxorubicin, vs NT1	viability ratio, doxorubicin over no drug	viability without drug, vs NT1	call
Gpn1 (GPN-loop GTPase 1)	1	low viability only with doxorubicin; normal without drug	0.56	0.74	0.76	active
Gpn1 (GPN-loop GTPase 1)	2	low viability only with doxorubicin; normal without drug	0.66	0.8	0.82	active
Gpn1 (GPN-loop GTPase 1)	3	low viability only with doxorubicin; normal without drug	0.66	0.74	0.89	active
Gpn1 (GPN-loop GTPase 1)	4	normal viability with and without drug	1.06	1.02	1.04	inactive
Usp4 (ubiquitin specific peptidase 4)	1	low viability only with doxorubicin; normal without drug	0.64	0.71	0.9	active
Usp4 (ubiquitin specific peptidase 4)	2	normal viability with and without drug	1.04	1.01	1.03	inactive
Usp4 (ubiquitin specific peptidase 4)	3	high viability only without drug	1.04	0.92	1.13	inactive
Usp4 (ubiquitin specific peptidase 4)	4	normal viability with and without drug	0.82	0.86	0.95	inactive
Rpl37 (ribosomal protein L37)	1	low viability with and without drug	0.32	0.73	0.44	inactive
Rpl37 (ribosomal protein L37)	2	low viability with and without drug	0.32	0.8	0.4	inactive
Rpl37 (ribosomal protein L37)	3	normal viability with and without drug	0.72	0.95	0.76	inactive
Rpl37 (ribosomal protein L37)	4	low viability with and without drug	0.33	0.72	0.46	inactive
Lonp2 (lon peptidase 2, peroxisomal)	1	normal viability with and without drug	0.92	0.92	1	inactive
Lonp2 (lon peptidase 2, peroxisomal)	2	normal viability with and without drug	1.02	1.02	1	inactive
Lonp2 (lon peptidase 2, peroxisomal)	3	normal viability with and without drug	1.04	1.08	0.96	inactive
Lonp2 (lon peptidase 2, peroxisomal)	4	normal viability with and without drug	1.02	1.05	0.97	inactive
Asb17 (ankyrin repeat and SOCS box-containing 17)	1	normal viability with and without drug	1.02	1.01	1.01	inactive
Asb17 (ankyrin repeat and SOCS box-containing 17)	2	normal viability with and without drug	0.87	0.97	0.9	inactive
Asb17 (ankyrin repeat and SOCS box-containing 17)	3	normal viability with and without drug	1.08	1.06	1.02	inactive
Asb17 (ankyrin repeat and SOCS box-containing 17)	4	normal viability with and without drug	1.04	0.98	1.06	inactive
Prr18 (proline rich 18)	1	normal viability with and without drug	0.9	0.88	1.02	inactive
Prr18 (proline rich 18)	2	low viability only with doxorubicin; normal without drug	0.7	0.74	0.95	active
Prr18 (proline rich 18)	3	normal viability with and without drug	0.94	0.93	1.01	inactive
Prr18 (proline rich 18)	4	normal viability with and without drug	1.02	1.04	0.98	inactive
